{"source": "PubChem BioAssay AID743454 (Peter MacCallum Cancer Centre, 2014)", "screen": "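Knock-downs lowering viability or raising caspase 3/7 activity in vorinostat-treated resistant cells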 (primary screen)", "cell system": "human HCT116-VR colon cancer cells, selected for vorinostat resistance", "reagent": "siRNA pool against human genes, 40 nM siRNA pool", "duration": "vorinostat for 24 h, read-out about 72 h after transfection", "treatment": "vorinostat at 2.5 µM final", "measurement": "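Cell viability by CellTiter-Fluor and caspase 3/7 activity by luminescence, each scaled to mock wells per plate, duplicates averaged, then robust z-scored over all plates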", "reading the numbers": "viability robust z-score: higher = more viable cells than screen typical; caspase robust z-score: higher = more caspase 3/7 activity than screen typical", "rule for the call": "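Hits are knock-downs in viability class RV1/RV2 or caspase class CA1/CA2, excluding ones that killed cells in the no-drug cell-count arm; hits then retested with single siRNAs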", "note": "In all, the deposit lists about 18,000 reagents; this is an unselected part. In the full data, 450 (2.5%) got an active call. 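Single biological run; no consistent viability z cut-off exists, so the class columns, not z-scores, define the calls.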"}
{"Target gene":"NPLOC4","viability hit class":"no change","caspase hit class":"no change","viability robust z-score":0.57,"caspase robust z-score":-0.1,"Call":"inactive"}
{"Target gene":"ADAT2","viability hit class":"no change","caspase hit class":"no change","viability robust z-score":0.43,"caspase robust z-score":-0.63,"Call":"inactive"}
{"Target gene":"TAF7","viability hit class":"no change","caspase hit class":"no change","viability robust z-score":-0.31,"caspase robust z-score":-0.48,"Call":"inactive"}
{"Target gene":"PRCP","viability hit class":"no change","caspase hit class":"no change","viability robust z-score":0.07,"caspase robust z-score":-0.4,"Call":"inactive"}
{"Target gene":"SPINK9","viability hit class":"no change","caspase hit class":"no change","viability robust z-score":-0.98,"caspase robust z-score":0.05,"Call":"inactive"}
{"Target gene":"FBXL4","viability hit class":"no change","caspase hit class":"no change","viability robust z-score":-1.29,"caspase robust z-score":-1.38,"Call":"inactive"}
{"Target gene":"RNF181","viability hit class":"no change","caspase hit class":"CA2 (caspase activation)","viability robust z-score":-1.19,"caspase robust z-score":6.04,"Call":"active"}
{"Target gene":"ATM","viability hit class":"no change","caspase hit class":"no change","viability robust z-score":0.22,"caspase robust z-score":-0.41,"Call":"inactive"}
{"Target gene":"CCPG1","viability hit class":"no change","caspase hit class":"no change","viability robust z-score":-0.62,"caspase robust z-score":0.55,"Call":"inactive"}
{"Target gene":"TCF12","viability hit class":"no change","caspase hit class":"no change","viability robust z-score":-1,"caspase robust z-score":1.27,"Call":"inactive"}
{"Target gene":"C1QL1","viability hit class":"no change","caspase hit class":"no change","viability robust z-score":0.68,"caspase robust z-score":-1.36,"Call":"inactive"}
{"Target gene":"OSBPL3","viability hit class":"no change","caspase hit class":"no change","viability robust z-score":0.57,"caspase robust z-score":-0.5,"Call":"inactive"}
{"Target gene":"ADGRE1","viability hit class":"no change","caspase hit class":"no change","viability robust z-score":0.68,"caspase robust z-score":-0.36,"Call":"inactive"}
{"Target gene":"ARNT2","viability hit class":"no change","caspase hit class":"no change","viability robust z-score":2.3,"caspase robust z-score":0.97,"Call":"inactive"}
{"Target gene":"ARL2","viability hit class":"no change","caspase hit class":"no change","viability robust z-score":-0.43,"caspase robust z-score":-1,"Call":"inactive"}
{"Target gene":"FXN","viability hit class":"no change","caspase hit class":"no change","viability robust z-score":0.44,"caspase robust z-score":-0.91,"Call":"inactive"}
{"Target gene":"HPS5","viability hit class":"no change","caspase hit class":"no change","viability robust z-score":-0.23,"caspase robust z-score":0.88,"Call":"inactive"}
{"Target gene":"HMBOX1","viability hit class":"no change","caspase hit class":"no change","viability robust z-score":0.33,"caspase robust z-score":-0.57,"Call":"inactive"}
{"Target gene":"SPATS1","viability hit class":"no change","caspase hit class":"no change","viability robust z-score":-0.39,"caspase robust z-score":-0.86,"Call":"inactive"}
{"Target gene":"FBXL16","viability hit class":"no change","caspase hit class":"no change","viability robust z-score":-0.82,"caspase robust z-score":1.45,"Call":"inactive"}
{"Target gene":"FRG2","viability hit class":"no change","caspase hit class":"no change","viability robust z-score":0.8,"caspase robust z-score":0.07,"Call":"inactive"}
{"Target gene":"PCOLCE2","viability hit class":"no change","caspase hit class":"CA2 (caspase activation)","viability robust z-score":-1.05,"caspase robust z-score":7.21,"Call":"active"}
{"Target gene":"CABP5","viability hit class":"no change","caspase hit class":"CA2 (caspase activation)","viability robust z-score":-2.38,"caspase robust z-score":6.07,"Call":"active"}
{"Target gene":"MVD","viability hit class":"no change","caspase hit class":"no change","viability robust z-score":-0.34,"caspase robust z-score":0,"Call":"inactive"}
{"Target gene":"H4C1","viability hit class":"no change","caspase hit class":"no change","viability robust z-score":0.02,"caspase robust z-score":0.34,"Call":"inactive"}
{"Target gene":"EIF4B","viability hit class":"no change","caspase hit class":"no change","viability robust z-score":-0.55,"caspase robust z-score":-1.19,"Call":"inactive"}
{"Target gene":"AGBL2","viability hit class":"no change","caspase hit class":"no change","viability robust z-score":1.06,"caspase robust z-score":-0.73,"Call":"inactive"}

Reagents listed above called active:
{"Target gene":"RNF181","viability hit class":"no change","caspase hit class":"CA2 (caspase activation)","viability robust z-score":-1.19,"caspase robust z-score":6.04,"Call":"active"}
{"Target gene":"PCOLCE2","viability hit class":"no change","caspase hit class":"CA2 (caspase activation)","viability robust z-score":-1.05,"caspase robust z-score":7.21,"Call":"active"}
{"Target gene":"CABP5","viability hit class":"no change","caspase hit class":"CA2 (caspase activation)","viability robust z-score":-2.38,"caspase robust z-score":6.07,"Call":"active"}
